According to PMC2447831:
No constants are given. Whether binding was seen depends on the method and setting. In cells and extracts the contact can be indirect. Some results given as binding are weak or reduced against the parent protein; the word gives no strength. Tags and fused reporters may be left off the sequences shown.

Chains of the proteins cited; added tags and fusions are not shown. Lines headed by an entry give the natural chain unless they say otherwise; changes in a name come on top.
UniProt P46531: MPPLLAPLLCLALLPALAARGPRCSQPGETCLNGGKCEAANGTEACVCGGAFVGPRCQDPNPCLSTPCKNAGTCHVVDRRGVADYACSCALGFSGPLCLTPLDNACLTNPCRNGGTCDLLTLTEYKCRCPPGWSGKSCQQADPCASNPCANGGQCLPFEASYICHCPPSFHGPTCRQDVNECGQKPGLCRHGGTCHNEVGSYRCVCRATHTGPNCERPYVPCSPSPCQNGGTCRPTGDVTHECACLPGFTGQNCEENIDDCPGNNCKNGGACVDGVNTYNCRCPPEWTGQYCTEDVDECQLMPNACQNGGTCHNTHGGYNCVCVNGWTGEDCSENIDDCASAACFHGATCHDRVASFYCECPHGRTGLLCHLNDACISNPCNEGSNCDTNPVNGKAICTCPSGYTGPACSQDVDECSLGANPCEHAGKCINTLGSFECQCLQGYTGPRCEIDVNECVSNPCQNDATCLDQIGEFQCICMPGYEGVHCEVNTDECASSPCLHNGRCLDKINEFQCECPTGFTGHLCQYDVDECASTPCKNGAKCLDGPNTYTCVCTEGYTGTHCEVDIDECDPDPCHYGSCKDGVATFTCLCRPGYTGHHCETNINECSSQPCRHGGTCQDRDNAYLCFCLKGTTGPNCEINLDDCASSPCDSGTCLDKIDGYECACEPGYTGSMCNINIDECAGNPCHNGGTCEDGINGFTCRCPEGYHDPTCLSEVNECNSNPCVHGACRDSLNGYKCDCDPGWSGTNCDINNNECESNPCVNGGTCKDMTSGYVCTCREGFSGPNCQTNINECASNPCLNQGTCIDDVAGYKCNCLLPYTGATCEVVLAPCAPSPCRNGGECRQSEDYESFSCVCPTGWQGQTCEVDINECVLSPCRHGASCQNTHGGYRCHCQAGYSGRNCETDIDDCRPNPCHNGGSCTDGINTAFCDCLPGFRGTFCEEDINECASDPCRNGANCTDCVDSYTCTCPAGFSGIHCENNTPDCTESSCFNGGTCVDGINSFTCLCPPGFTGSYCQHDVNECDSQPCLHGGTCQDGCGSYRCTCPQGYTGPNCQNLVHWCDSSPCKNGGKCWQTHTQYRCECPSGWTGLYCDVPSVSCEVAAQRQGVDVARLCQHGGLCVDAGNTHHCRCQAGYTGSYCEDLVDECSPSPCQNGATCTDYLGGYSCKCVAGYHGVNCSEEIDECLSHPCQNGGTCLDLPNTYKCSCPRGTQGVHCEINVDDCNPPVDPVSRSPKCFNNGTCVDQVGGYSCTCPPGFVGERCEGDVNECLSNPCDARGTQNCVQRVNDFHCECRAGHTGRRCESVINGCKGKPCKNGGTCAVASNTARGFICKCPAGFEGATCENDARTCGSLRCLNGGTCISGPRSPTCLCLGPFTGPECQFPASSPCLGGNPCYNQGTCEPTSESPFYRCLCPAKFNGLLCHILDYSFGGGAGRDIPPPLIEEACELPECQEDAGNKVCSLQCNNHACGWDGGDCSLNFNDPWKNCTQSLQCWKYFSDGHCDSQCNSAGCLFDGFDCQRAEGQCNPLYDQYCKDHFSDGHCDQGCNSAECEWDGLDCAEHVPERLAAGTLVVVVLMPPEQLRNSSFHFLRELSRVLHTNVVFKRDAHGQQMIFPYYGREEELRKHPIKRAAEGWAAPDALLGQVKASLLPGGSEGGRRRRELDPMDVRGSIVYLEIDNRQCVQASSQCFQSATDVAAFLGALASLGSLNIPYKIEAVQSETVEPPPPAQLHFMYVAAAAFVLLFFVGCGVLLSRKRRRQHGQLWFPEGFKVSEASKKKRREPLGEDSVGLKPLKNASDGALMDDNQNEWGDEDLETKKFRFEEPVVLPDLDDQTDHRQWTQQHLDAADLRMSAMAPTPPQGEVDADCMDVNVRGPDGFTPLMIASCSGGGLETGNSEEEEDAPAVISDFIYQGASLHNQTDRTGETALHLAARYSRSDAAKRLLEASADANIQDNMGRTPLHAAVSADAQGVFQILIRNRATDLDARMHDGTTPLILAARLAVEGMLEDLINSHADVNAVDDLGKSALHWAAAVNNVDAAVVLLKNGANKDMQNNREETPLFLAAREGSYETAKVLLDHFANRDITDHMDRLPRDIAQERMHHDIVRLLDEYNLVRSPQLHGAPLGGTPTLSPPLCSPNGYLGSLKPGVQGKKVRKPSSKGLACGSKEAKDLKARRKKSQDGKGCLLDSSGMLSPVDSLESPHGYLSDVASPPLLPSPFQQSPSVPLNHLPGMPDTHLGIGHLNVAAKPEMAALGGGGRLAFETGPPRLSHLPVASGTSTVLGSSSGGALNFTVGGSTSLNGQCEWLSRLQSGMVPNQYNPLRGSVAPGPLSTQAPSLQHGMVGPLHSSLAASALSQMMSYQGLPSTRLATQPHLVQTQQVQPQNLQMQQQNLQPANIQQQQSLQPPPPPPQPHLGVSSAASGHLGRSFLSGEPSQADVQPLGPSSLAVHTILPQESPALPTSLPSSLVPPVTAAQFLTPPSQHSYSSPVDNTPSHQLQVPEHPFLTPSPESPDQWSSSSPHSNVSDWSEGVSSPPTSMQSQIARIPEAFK

Molecular target: T1, Dab-1 with a flag tag added to its C terminus (UniProt O75553)
T1 sequence: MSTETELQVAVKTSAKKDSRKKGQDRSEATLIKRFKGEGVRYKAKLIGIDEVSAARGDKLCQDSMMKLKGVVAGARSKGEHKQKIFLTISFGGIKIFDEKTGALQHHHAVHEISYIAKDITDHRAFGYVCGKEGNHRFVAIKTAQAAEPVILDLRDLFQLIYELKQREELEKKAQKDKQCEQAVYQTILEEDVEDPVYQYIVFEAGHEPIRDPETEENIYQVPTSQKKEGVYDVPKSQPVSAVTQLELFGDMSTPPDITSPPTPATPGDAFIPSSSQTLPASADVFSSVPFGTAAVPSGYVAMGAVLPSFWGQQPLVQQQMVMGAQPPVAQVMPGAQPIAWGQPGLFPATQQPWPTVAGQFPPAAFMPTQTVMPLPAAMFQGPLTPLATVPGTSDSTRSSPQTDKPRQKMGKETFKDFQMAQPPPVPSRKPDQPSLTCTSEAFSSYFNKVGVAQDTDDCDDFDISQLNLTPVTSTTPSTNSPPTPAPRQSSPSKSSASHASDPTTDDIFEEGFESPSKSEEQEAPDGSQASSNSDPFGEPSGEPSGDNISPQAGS
Assay: co-IP; HNPCs transfected with Dab-1-FLAG for 24 hours; lysed in RIPA buffer (150 mM NaCl, 1% IGEPAL CA-630, 0.5% sodium deoxycholate, 0.1% SDS, 50 mM Tris pH 8.0) with 1% Triton-X; 700 ug protein with anti-Flag, anti-Notch-1 or anti-NICD for 3 hours at 4 C, protein G- or A-Sepharose 1 hr at 4 C, washed 5x with lysis buffer; western blot

binding	Substance
binds	Notch-1 intracellular domain (NICD) (from UniProt P46531 1754-2555) (domain or fragment)
binds	full-length Notch-1 (from UniProt P46531 19-2555) (receptor)
